Values quoted from earlier work in US12377044B2, “Method and device for transdermal delivery of parathyroid hormone using a microprojection array” (Panther Life Sciences Corporation, priority 2010, dated 2025).
Not every detail of the peptide structures is certain; ends, links or a residue may be inferred.

Conditions: R. Neer, NEJM, 344:1434, 2001; cited from earlier work

## CC[C@H](C)[C@H](NC(=O)[C@H](CCC(=O)O)NC(=O)[C@H](CO)NC(=O)[C@@H](NC(=O)[C@@H](N)CO)C(C)C)C(=O)N[C@@H](CCC(N)=O)C(=O)N[C@@H](CC(C)C)C(=O)N[C@@H](CCSC)C(=O)N[C@@H](Cc1c[nH]cn1)C(=O)N[C@@H](CC(N)=O)C(=O)N[C@@H](CC(C)C)C(=O)NCC(=O)N[C@@H](CCCCN)C(=O)N[C@@H](Cc1c[nH]cn1)C(=O)N[C@@H](CC(C)C)C(=O)N[C@@H](CC(N)=O)C(=O)N[C@@H](CO)C(=O)N[C@@H](CCSC)C(=O)N[C@@H](CCC(=O)O)C(=O)N[C@@H](CCCNC(=N)N)C(=O)N[C@H](C(=O)N[C@@H](CCC(=O)O)C(=O)N[C@@H](Cc1c[nH]c2ccccc12)C(=O)N[C@@H](CC(C)C)C(=O)N[C@@H](CCCNC(=N)N)C(=O)N[C@@H](CCCCN)C(=O)N[C@@H](CCCCN)C(=O)N[C@@H](CC(C)C)C(=O)N[C@@H](CCC(N)=O)C(=O)N[C@@H](CC(=O)O)C(=O)N[C@H](C(=O)N[C@@H](Cc1c[nH]cn1)C(=O)N[C@@H](CC(N)=O)C(=O)N[C@@H](Cc1ccccc1)C(=O)O)C(C)C)C(C)C [hPTH (1-34), human Parathyroid hormone (1-34)]
  clinical effect in osteoporotic patients at high risk of fracture: builds bone mass, restores bone architecture, and reduces the risk of vertebral and non-vertebral bone fractures
